From US20110045100A1, “Antimalarial Quinolines and Methods of Use Thereof” (GEORGETOWN UNIVERSITY, priority 2008, published 2011)

Test system: hemin chloride (heme)
Assay: T1 measurements of the CQ protons with hemin chloride
Format: binding

Structure (SMILES): CCN(CC)CCCC(C)Nc1ccnc2cc(Cl)ccc12 (centres unmarked) [CQ, chloroquine, reference compound]
- T1 for CQ proton 1 (10 mM CQ and 2 mM hemin chloride in 40% DMSO at pH 5.0): 0.70 s
- T1 for CQ proton 1 (pH 7.0): 0.039 s
